According to PubChem BioAssay AID192 (DTP/NCI, 2004):
The list is a part of this screen's results and no random one: it is rich in T/C values a quarter to a half above the control, in often repeated tests (any T/C) and in doses without a T/C. Other doses and runs of a compound stand elsewhere. T/C gives the treated animals as a percentage of the vehicle group. Some entries give survivors of the animals treated and no T/C: the source holds a T/C of zero for them, seemingly a mark for toxic or unscored doses. Some doses without a T/C left all or most animals alive at the check, yet need not have been tolerated: survival well below the control is almost never listed, so the zero probably covers shortened survival too. Counts of survivors are from the toxicity check (mostly the fifth day) where no day follows; animals may have died later. Schedule codes are those of the source, taken here to give the interval after Q, in days (D) or hours (H), and the number of doses after X. Some entries hold several experiments; the values are given in rising order. Where survival is the endpoint, the PubChem record calls one and a half times the control and up active, and a quarter to a half above the control has no call in these data; cut-offs in other NCI protocols can differ. Some T/C values are followed by the survivors on the day toxicity was checked, most often the fifth; without a count, all were alive then. Brackets with × stand for listed records that agree. Peptide text beside a SMILES is read from it. * marks the point of attachment. Cbz = O=C(OCc1ccccc1)*

Test system: BDF1 mice, B16 melanoma ip, median survival T/C
Experiment: NCI In Vivo Anticancer Drug Screen. Data for tumor model B16 Melanoma (intraperitoneal) in B6D2F1 (BDF1) mice
Conditions: T/C endpoint: median survival time, higher T/C = longer survival
Summary of the method: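 In this screen, activity was judged from survival or tumor size in treated versus vehicle-treated tumor-bearing mice, reported as T/C.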

[1] = dose: 12.5 mg/kg/injection, schedule: Q01DX009 (ip), vehicle: saline
[2] = dose: 50.0 mg/kg/injection, schedule: Q01DX009 (ip), vehicle: saline
[3] = dose: 100.0 mg/kg/injection, schedule: Q01DX009 (ip), vehicle: saline
[4] = dose: 200.0 mg/kg/injection, schedule: Q01DX009 (ip), vehicle: saline
[5] = dose: 400.0 mg/kg/injection, schedule: Q01DX009 (ip), vehicle: saline
[6] = dose: 4.0 mg/kg/injection, schedule: Q01DX009 (ip), vehicle: saline
[7] = dose: 8.0 mg/kg/injection, schedule: Q01DX009 (ip), vehicle: saline
[8] = dose: 16.0 mg/kg/injection, schedule: Q01DX009 (ip), vehicle: saline
[9] = dose: 100.0 mg/kg/injection, schedule: Q04DX003 (ip), vehicle: saline
[10] = dose: 200.0 mg/kg/injection, schedule: Q04DX003 (ip), vehicle: saline
[11] = dose: 400.0 mg/kg/injection, schedule: Q04DX003 (ip), vehicle: saline
[12] = dose: 25.0 mg/kg/injection, schedule: Q01DX009 (ip), vehicle: Klucel (hydroxypropylcellulose) (HPC)
[13] = dose: 50.0 mg/kg/injection, schedule: Q01DX009 (ip), vehicle: Klucel (hydroxypropylcellulose) (HPC)
[14] = dose: 400.0 mg/kg/injection, schedule: Q01DX009 (ip), vehicle: saline with Tween-80
[15] = dose: 46.8 mg/kg/injection, schedule: Q01DX009 (ip), vehicle: saline
[16] = dose: 187.2 mg/kg/injection, schedule: Q04DX003 (ip), vehicle: saline
[17] = dose: 100.0 mg/kg/injection, schedule: Q01DX009 (ip), vehicle: Klucel (hydroxypropylcellulose) (HPC)
[18] = dose: 100.0 mg/kg/injection, schedule: Q01DX009 (ip), vehicle: saline with Tween-80

## CCN(CC)[P+](c1ccccc1O)(N(CC)CC)N(CC)CC
[1]
  survivor count: 1 of 10
dose: 25.0 mg/kg/injection, schedule: Q01DX009 (ip), vehicle: saline
  survivor count: 0 of 10
[2]
  survivor count: 0 of 10
[3]
  survivor count: 0 of 10
[4]
  survivor count: 0 of 10
[5]
  survivor count: 0 of 10

## N[C@H](C(=O)O)[C@@H]1CC(Cl)=NO1
dose: 0.5 mg/kg/injection, schedule: Q01DX009 (ip), vehicle: saline
  T/C: 93 [8 of 10 alive], 98, 100, 101, 104 [9 of 10 alive], 106 % of control
dose: 1.0 mg/kg/injection, schedule: Q01DX009 (ip), vehicle: saline
  T/C: 102, 104, 106, 109 (2×), 110 [9 of 10 alive], 112, 116 % of control
dose: 2.0 mg/kg/injection, schedule: Q01DX009 (ip), vehicle: saline
  T/C: 100, 103, 106, 106 [9 of 10 alive], 109, 112, 116, 131 % of control
[6]
  T/C: 101 [9 of 10 alive], 105, 107, 113, 114, 116, 119 % of control
  survivor count: 10 of 10
[7]
  T/C: 91, 102, 122 % of control
  survivor count: 10 of 10
[8]
  T/C: 89 % of control
  survivor count: 9 of 10 and 10 of 10
dose: 32.0 mg/kg/injection, schedule: Q01DX009 (ip), vehicle: saline
  survivor count: 10 of 10

## CO[C@@H](C=O)O[C@@H](C=O)CO
[3]
  survivor count: 1 of 10
[9]
  survivor count: 10 of 10
[4]
  survivor count: 0 of 10
[10]
  survivor count: 10 of 10
[11]
  survivor count: 8 of 10

## CS(=O)(=O)OCCN(CCOS(C)(=O)=O)c1ccc(C=Nc2ccc3oc(=O)ccc3c2)cc1
dose: 6.25 mg/kg/injection, schedule: Q01DX009 (ip), vehicle: Klucel (hydroxypropylcellulose) (HPC)
  survivor count: 10 of 10
dose: 12.5 mg/kg/injection, schedule: Q01DX009 (ip), vehicle: Klucel (hydroxypropylcellulose) (HPC)
  survivor count: 10 of 10
[12]
  T/C: 142 % of control
  survivor count: 10 of 10
[13]
  survivor count: 10 of 10

## COc1cc2cc3c4cc(OC)c(OC)cc4cc[n+]3c(C)c2cc1OC
dose: 50.0 mg/kg/injection, schedule: Q01DX009 (ip), vehicle: saline sonified
  survivor count: 6 of 6
dose: 100.0 mg/kg/injection, schedule: Q01DX009 (ip), vehicle: saline sonified
  survivor count: 6 of 6
dose: 200.0 mg/kg/injection, schedule: Q01DX009 (ip), vehicle: saline sonified
  survivor count: 6 of 6

## O=C(NC(Cc1ccccc1)C(=O)N1CCCC1C(=O)O)OCc1ccccc1 (stereo not drawn) (Cbz-Phe-Pro-OH; configuration not given here)
[14]
  survivor count: 8 of 10

## COc1cccc2c1C(=O)c1c(O)c3c(c(O)c1C2=O)CC(O)(C(C)=O)CC3OC1CC(N)C(O)C(C)O1 (stereo not drawn)
dose: 5.8 mg/kg/injection, schedule: Q01DX009 (ip), vehicle: saline
  T/C: 132 % of control
dose: 23.4 mg/kg/injection, schedule: Q04DX003 (ip), vehicle: saline
  T/C: 125 % of control
dose: 40.0 mg/kg/injection, schedule: Q01DX007 (ip), vehicle: water
  survivor count: 6 of 6
dose: 40.0 mg/kg/injection, schedule: Q01DX009 (ip), vehicle: water
  survivor count: 8 of 8
[15]
  T/C: 128 % of control
  survivor count: 10 of 10
dose: 46.8 mg/kg/injection, schedule: Q04DX003 (ip), vehicle: saline
  T/C: 125 % of control
dose: 93.6 mg/kg/injection, schedule: Q04DX003 (ip), vehicle: saline
  T/C: 131 % of control
[16]
  T/C: 135 % of control
  survivor count: 10 of 10

## O=Cc1ccc(C(Cl)(Cl)Cl)cc1
[14]
  survivor count: 3 of 10 and 9 of 10

## Cc1ccc(NC(=O)Nc2ccc(Cl)c(Cl)c2)cc1Cl
[17]
  survivor count: 10 of 10

## C1CCC2OCCOCCOC3CCCCC3OCCOCCOC2C1 (stereo not drawn)
[13]
  survivor count: 2 of 10
[17]
  survivor count: 0 of 10

## CC12CCC(C1)C(C)(C)C2NCCCN1C(=O)c2ccc3c4c(ccc(c24)C1=O)C(=O)N(CCCNC1C2(C)CCC(C2)C1(C)C)C3=O (stereo not drawn)
[13]
  survivor count: 10 of 10
[17]
  survivor count: 4 of 10

## CCC(=O)NC1=C(N2CC2)C(=O)C(NC(=O)CC)=C(N2CC2)C1=O
[6]
  survivor count: 10 of 10

## O=Cc1ccc([N+](=O)[O-])s1
dose: 50.0 mg/kg/injection, schedule: Q01DX009 (ip), vehicle: saline with Tween-80
  survivor count: 6 of 10
[18]
  survivor count: 1 of 10

## Cc1cnc2c(=O)[nH]c(=O)[nH]c2n1
dose: 200.0 mg/kg/injection, schedule: Q01DX009 (ip), vehicle: Klucel (hydroxypropylcellulose) (HPC)
  survivor count: 10 of 10

## Cc1c2c(ccc3ccccc32)c[n+]2ccccc12
dose: 25.0 mg/kg/injection, schedule: Q01DX009 (ip), vehicle: suspension in saline
  survivor count: 0 of 10
dose: 50.0 mg/kg/injection, schedule: Q01DX009 (ip), vehicle: suspension in saline
  survivor count: 0 of 10

## CCC1(C(C)Br)OC2=C(CC(C#N)(C#N)C(C#N)(C#N)C2)O1 (stereo not drawn)
dose: 150.0 mg/kg/injection, schedule: Q04DX003 (ip), vehicle: Klucel (hydroxypropylcellulose) (HPC)
  survivor count: 9 of 10
dose: 300.0 mg/kg/injection, schedule: Q04DX003 (ip), vehicle: Klucel (hydroxypropylcellulose) (HPC)
  survivor count: 5 of 10

## CCCCCCCCCCCCCCCCC/C=C1\CC(=O)OC1=O
[18]
  survivor count: 10 of 10

## O=[N+]([O-])O.O=[N+]([O-])O.[O]=[Zr]
[9]
  survivor count: 10 of 10
[10]
  survivor count: 10 of 10
[11]
  survivor count: 10 of 10

## CC(CN1CCN(CCOCCO)CC1)CN1c2ccccc2Sc2ccccc21 (stereo not drawn)
[1]
  survivor count: 10 of 10
[2]
  survivor count: 7 of 10
[3]
  survivor count: 0 of 10
[4]
  survivor count: 0 of 10
[5]
  survivor count: 0 of 10

## COc1ccc(-c2nc3cc(Cl)ccc3c(=O)o2)cc1
dose: 400.0 mg/kg/injection, schedule: Q01DX009 (ip), vehicle: Klucel (hydroxypropylcellulose) (HPC)
  survivor count: 2 of 10

## Nc1nc(F)nc2nc[nH]c12
dose: 40.0 mg/kg/injection, schedule: Q01DX009 (ip), vehicle: Klucel (hydroxypropylcellulose) (HPC)
  survivor count: 8 of 10 and 10 of 10

## CN1CCC(=C(C#N)C#N)CC1
dose: 12.5 mg/kg/injection, schedule: Q04DX003 (ip), vehicle: saline
  survivor count: 10 of 10
dose: 25.0 mg/kg/injection, schedule: Q04DX003 (ip), vehicle: saline
  survivor count: 10 of 10
dose: 50.0 mg/kg/injection, schedule: Q04DX003 (ip), vehicle: saline
  survivor count: 10 of 10

## COc1ccc2c3c1OC1CC(O)C=CC31CCN(C)C2 (stereo not drawn)
dose: 2.5 mg/kg/injection, schedule: Q01DX009 (ip), vehicle: saline with Tween-80
  T/C: 131 % of control
dose: 5.0 mg/kg/injection, schedule: Q01DX009 (ip), vehicle: saline
  survivor count: 10 of 10
dose: 10.0 mg/kg/injection, schedule: Q01DX009 (ip), vehicle: saline
  survivor count: 4 of 10
dose: 20.0 mg/kg/injection, schedule: Q01DX009 (ip), vehicle: saline with Tween-80
  survivor count: 0 of 10
dose: 20.0 mg/kg/injection, schedule: Q01DX009 (ip), vehicle: saline
  survivor count: 0 of 10
